# The other results are listed elsewhere or left out. Repeats are few or missing, and single values can be far off.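 Cells were imaged in 1,536-well plates, and nuclei stained with an antibody against cleaved PARP were counted against all DNA-stained nuclei to give the apoptosis fraction. Screening doses were chosen to leave most cells alive, and resting and induced cleaved-PARP levels differ strongly between cell lines.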
# Experiments:
# Assay in all cases: cleaved PARP positive nuclei fraction relative to DMSO control; melanoma cells; higher = more apoptosis
# Details in all cases: library dose: low library concentration; 72 h
# 501Mel = system: 501Mel
# A101D = system: A101D
# A2058 = system: A2058
# A375 = system: A375
# C32 = system: C32
# CBRC013 = system: CBRC013 (line from a melanoma biopsy)
# CBRC014 = system: CBRC014 (line from a melanoma biopsy)
# CBRC016 = system: CBRC016 (line from a melanoma biopsy)
# CBRC017 = system: CBRC017 (line from a melanoma biopsy)
# CBRC034 = system: CBRC034 (line from a melanoma biopsy)
# COLO792 = system: COLO792
# COLO800 = system: COLO800
# COLO829 = system: COLO829
# G361 = system: G361
# IPC-298 = system: IPC-298
# IST-MEL1 = system: IST-MEL1
# LB2518-MEL = system: LB2518-MEL
# LOXIMVI = system: LOXIMVI
Structure (SMILES),cleaved PARP positive nuclei fraction (501Mel),cleaved PARP positive nuclei fraction (A101D),cleaved PARP positive nuclei fraction (A2058),cleaved PARP positive nuclei fraction (A375),cleaved PARP positive nuclei fraction (C32),cleaved PARP positive nuclei fraction (CBRC013),cleaved PARP positive nuclei fraction (CBRC014),cleaved PARP positive nuclei fraction (CBRC016),cleaved PARP positive nuclei fraction (CBRC017),cleaved PARP positive nuclei fraction (CBRC034),cleaved PARP positive nuclei fraction (COLO792),cleaved PARP positive nuclei fraction (COLO800),cleaved PARP positive nuclei fraction (COLO829),cleaved PARP positive nuclei fraction (G361),cleaved PARP positive nuclei fraction (IPC-298),cleaved PARP positive nuclei fraction (IST-MEL1),cleaved PARP positive nuclei fraction (LB2518-MEL),cleaved PARP positive nuclei fraction (LOXIMVI)
"CC1(C)NC(=O)N(c2ccc([N+](=O)[O-])c(C(F)(F)F)c2)C1=O [nilutamide] + CCc1ccc(CCOc2ccc(CC3SC(=O)NC3=O)cc2)nc1 [pioglitazone] (first compound 1 µM, partner dose 2 µM)",80.4%,110%,101%,156%,76.6%,46.4%,105%,99.6%,73.7%,93%,112%,115%,62.3%,149%,81.9%,110%,82%,68.4%
"Nc1cccc2c1CN(C1CCC(=O)NC1=O)C2=O (configuration not stated) [lenalidomide] + COc1cc(N2CCC(N3CCN(C)CC3)CC2)ccc1Nc1ncc(Cl)c(Nc2ccccc2S(=O)(=O)C(C)C)n1 [NVP-TAE684] (first compound 1 µM, partner dose 0.08 µM)",103%,172%,141%,60%,222%,190%,92.1%,58.4%,82%,140%,186%,142%,71.6%,55.7%,191%,27.3%,74.4%,101%
"CC1(C)NC(=O)N(c2ccc([N+](=O)[O-])c(C(F)(F)F)c2)C1=O [nilutamide] + Cn1cc(/C=C2\C(=O)Nc3cccnc32)c2ccccc21 [GW441756] (first compound 1 µM, partner dose 0.4 µM)",74.5%,159%,79.5%,85.4%,104%,259%,198%,163%,64.4%,61.2%,69%,66.6%,33.9%,94.1%,40.1%,594%,94.5%,59.4%
"OCCn1cc(-c2cnc3nnn(Cc4ccc5ncccc5c4)c3n2)cn1 + c1cc(-c2cnn3cc(-c4ccc(OCCN5CCCCC5)cc4)cnc23)ccn1 [Dorsomorphin] (first compound 1 µM, partner dose 0.4 µM)",78.8%,186%,190%,50.6%,86.2%,130%,124%,24.1%,141%,71.9%,105%,91%,89.6%,21.5%,38.7%,55.9%,76.7%,34.3%
"Cn1c(Nc2ccc(C(F)(F)F)cc2)nc2cc(Oc3ccnc(-c4ncc(C(F)(F)F)[nH]4)c3)ccc21 + CCN(CC)CCCCNc1ncc2cc(-c3cc(OC)cc(OC)c3)c(NC(=O)NC(C)(C)C)nc2n1 [PD173074] (first compound 0.08 µM, partner dose 0.1 µM)",265%,129%,232%,59.9%,175%,67.1%,97.8%,169%,45.6%,103%,371%,94.5%,63.2%,168%,70.4%,148%,169%,74%
"O=C(CCCCCCC(=O)Nc1ccccc1)NO [vorinostat] + O=C1NC(=O)/C(=C/c2ccc(-c3ccc(F)cc3O)o2)S1 [AS252424] (first compound 0.08 µM, partner dose 1 µM)",76.9%,114%,35.6%,43.3%,117%,252%,221%,142%,118%,92.8%,60%,128%,103%,106%,170%,88.1%,94.3%,97.5%
"COCC[n+]1c2c(n(Cc3cnccn3)c1C)C(=O)c1ccccc1C2=O + N#Cc1c(O)c2c(-c3ccc(-c4ccccc4O)cc3)csc2[nH]c1=O [A769662] (first compound 0.0004 µM, partner dose 2 µM)",227%,114%,67.8%,191%,92.8%,76.8%,94.2%,53.5%,57.5%,80.7%,92.7%,28.1%,104%,80.9%,118%,51.5%,181%,168%
"CO[C@@H]1[C@H](N(C)C(=O)c2ccccc2)C[C@H]2O[C@]1(C)n1c3ccccc3c3c4c(c5c6ccccc6n2c5c31)C(=O)NC4 [Midostaurin] + CCc1ccc(CCOc2ccc(CC3SC(=O)NC3=O)cc2)nc1 [pioglitazone] (first compound 0.08 µM, partner dose 2 µM)",32.9%,197%,101%,276%,178%,36.6%,98%,91.9%,174%,48.9%,94.4%,72.2%,220%,135%,38.5%,32.4%,81.7%,46.1%
"C[C@]1(c2nc3c(C(N)=O)cccc3[nH]2)CCCN1 [Veliparib] + COc1ccc2c(c1)CCC1C2CCC2(C)C(NCCCCCCN3C(=O)C=CC3=O)CCC12 [U73122] (first compound 1.4 µM, partner dose 0.4 µM)",137%,185%,99.8%,305%,137%,49.3%,104%,109%,96.6%,71.2%,70.8%,114%,83.9%,65.4%,159%,446%,83.1%,44.5%

# Single values from above.
# cleaved PARP positive nuclei fraction (A101D) with Cn1c(Nc2ccc(C(F)(F)F)cc2)nc2cc(Oc3ccnc(-c4ncc(C(F)(F)F)[nH]4)c3)ccc21 + CCN(CC)CCCCNc1ncc2cc(-c3cc(OC)cc(OC)c3)c(NC(=O)NC(C)(C)C)nc2n1 [PD173074] (first compound 0.08 µM, partner dose 0.1 µM) reads 129%
# cleaved PARP positive nuclei fraction (C32) with C[C@]1(c2nc3c(C(N)=O)cccc3[nH]2)CCCN1 [Veliparib] + COc1ccc2c(c1)CCC1C2CCC2(C)C(NCCCCCCN3C(=O)C=CC3=O)CCC12 [U73122] (first compound 1.4 µM, partner dose 0.4 µM) reads 137%
